Record: PubChem BioAssay AID1224826 (NIAID, 2016)
Shown is a random part of about 17,000 reagents. About 1,110 of all reagents (6.6%) were called active. 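Active means lowered or raised reporter signal; replicate intensities are raw and not normalised per plate.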 The numbers tell different reagents against one gene apart. Further read-outs or replicates are left out here.

- Test: 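Knock-downs that raise or lower Tnf reporter signal after endotoxin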 (primary screen)
- Cells: RAW264.7 G9 macrophages from mouse bearing reporters for p65 (GFP) and the Tnf promoter (mCherry)
- Reagents: siRNA pool against mouse genes, 100 nM
- Time to read-out: 16 h of LPS stimulation, after 2 days of siRNA transfection
- Challenge: bacterial lipopolysaccharide (Salmonella minnesota R595), 10 ng/ml
- Measured: 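Imaged Tnf reporter mCherry in nuclei, minus background, normalised per plate to the median and expressed as robust z-scores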
- Reading the numbers: Tnf reporter robust z-score: higher = stronger Tnf promoter reporter signal after LPS
- Rule for the call: 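Called active when robust z-score is at most -1.3, matching the median of the Tlr4 knock-down control, or over 3; control wells and wells with under 50 cells never active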
- Meaning of the calls: active = Tnf reporter clearly lowered or raised; inactive = no clear change in Tnf reporter

no.	Target gene	reagent	Tnf reporter robust z-score	fewer than 50 cells in well	call
1	Cnga3 (cyclic nucleotide gated channel alpha 3)	1	-0.24	enough cells in well	inactive
2	Vamp5 (vesicle-associated membrane protein 5)	1	0.41	enough cells in well	inactive
3	Vamp5 (vesicle-associated membrane protein 5)	2	-0.29	enough cells in well	inactive
4	Psph (phosphoserine phosphatase)	1	-0.12	enough cells in well	inactive
5	Thbs3 (thrombospondin 3)	1	0.85	enough cells in well	inactive
6	Cfd (complement factor D)	1	-0.78	enough cells in well	inactive
7	Has1 (hyaluronan synthase 1)	1	0.66	enough cells in well	inactive
8	Cyp24a1 (cytochrome P450, family 24, subfamily a, polypeptide 1)	1	1.29	enough cells in well	inactive
9	Antxr1 (anthrax toxin receptor 1)	1	0.69	enough cells in well	inactive
10	Gna13 (guanine nucleotide binding protein, alpha 13)	1	-0.83	enough cells in well	inactive
11	Tmem176b (transmembrane protein 176B)	1	-0.59	enough cells in well	inactive
12	Pstpip1 (proline-serine-threonine phosphatase-interacting protein 1)	1	-0.14	enough cells in well	inactive

Next part (2 carried over from the part before).
no.	Target gene	reagent	Tnf reporter robust z-score	fewer than 50 cells in well	call
11	Tmem176b (transmembrane protein 176B)	1	-0.59	enough cells in well	inactive
12	Pstpip1 (proline-serine-threonine phosphatase-interacting protein 1)	1	-0.14	enough cells in well	inactive
13	Or4c3 (olfactory receptor family 4 subfamily C member 3)	1	2.25	enough cells in well	inactive
14	2310067E19Rik (RIKEN cDNA 2310067E19 gene)	1	0.12	enough cells in well	inactive
15	Or5an10 (olfactory receptor family 5 subfamily AN member 10)	1	-0.72	enough cells in well	inactive
16	Agt (angiotensinogen)	1	-0.75	enough cells in well	inactive
17	Trim60 (tripartite motif-containing 60)	1	-0.48	enough cells in well	inactive
18	Asb9 (ankyrin repeat and SOCS box-containing 9)	1	1.04	enough cells in well	inactive
19	Prss2 (serine protease 2)	1	0.5	enough cells in well	inactive
20	Fam124b (family with sequence similarity 124, member B)	1	-0.76	enough cells in well	inactive
21	Pld3 (phospholipase D family member 3)	1	0.2	enough cells in well	inactive
22	Cpn1 (carboxypeptidase N, polypeptide 1)	1	0.26	enough cells in well	inactive
23	Tex46 (testis expressed 46)	1	-0.41	enough cells in well	inactive
24	Lrrc72 (leucine rich repeat containing 72)	1	-1.1	enough cells in well	inactive
